{
  "source": "patent US20190224213A1",
  "about": "“VAGINAL COMPOSITION COMPRISING A COMBINATION OF ESTROGEN AND VITAMIN D” (CHEMO RESEARCH S.L., priority 2016, published 2019)",
  "key": {"vaginal epithelium [1]": {"system": "vaginal epithelium", "assay": "Vaginal Maturation Index: percentage of cornified cells in vaginal smears of ovariectomized rats", "format": "in vivo, rat", "details": "Estradiol 0.4 μg, 6-week treatment", "protocol": "(§1) Three weeks after ovariectomy (at Day 21), the ovariectomized rats are divided in five distinct groups of at least eight animals per group, respectively: • Group 1: the ovariectomized rats receive no treatment at all • Group 2: the ovariectomized rats are administered once daily with an ovule comprising a liquid saline (placebo) • Group 3: the ovariectomized rats are administered once daily with an ovule comprising estradiol alone, in the absence of vitamin D analog • Group 4: the ovariectomized rats are administered once daily with an ovule comprising vitamin D analog alone, in the absence of estradiol. • Group 5: the ovariectomized rats are administered once daily with an ovule comprising (i) the combination of estradiol and vitamin D analog.\n(§2) Each of the Groups 1, 2, 3, 4 and 5 of ovariectomized rats receives the indicated treatment during a period of time of six weeks (thus until Day 63).\nSmears of vaginal tissue are collected from each of the tested animal by gentle scraping along the wall of the vagina the day before the first treatment and the day following the last treatment for determining the Vaginal Maturation Index (VMI).\nFor each rat, 2 samples are taken by gentle scraping along the wall of the vagina. […]\nVMI is assessed as a ratio obtained through performing a random count of 3 major cell types. […]"}, "vaginal epithelium [2]": {"system": "vaginal epithelium", "assay": "Vaginal epithelium thickness evaluation in ovariectomized rats", "format": "in vivo, rat", "details": "Estradiol 0.4 μg, 6-week treatment", "description": "8-10 weeks-old female Sprague Dawley rats (Janvier, France) are first acclimated during a period of time of one week or more.\nThe acclimated rats undergo a bilateral ovariectomy (at “Day 0”), so as to induce an experimental menopause.\nas §1, §2\nOne part of the vagina tissue material is paraffin-embedded. Slices of the paraffin-embedded vaginal tissue are stained for studying and measuring the vaginal epithelium thickness as well as the vaginal epithelium morphology. […]"}},
  "note": "Some of these results come from one statement about several compounds together.",
  "data": [
    {"smiles": "C[C@]12CC[C@@H]3c4ccc(O)cc4CC[C@H]3[C@@H]1CC[C@@H]2O", "note": "[Estradiol, (17beta)-estra-1,3,5(10)-triene-3,17-diol]", "values": [
      {"measurement": "change from baseline in percentage of cornified cells: significance", "setting": "vaginal epithelium [1]", "result": "*** (“***” means p<0.001)"},
      {"measurement": "epithelium thickness, percentage increase versus placebo: significance", "setting": "vaginal epithelium [2]", "result": "**** (“****” means p<0.0001 versus placebo conditions)"}
    ]}
  ]
}
